Data reported in PubChem BioAssay AID504648 (National Center for Advancing Translational Sciences (NCATS), 2011).
About 610 (0.16%) of roughly 390,000 compounds were called active. This list was built around the results that the source calls inconclusive (neither active nor inactive); the mix of calls is not that of the screen. Calls come from the whole dose curve; as a rule, active = well fitted inhibition curve with a large enough effect; inconclusive = small, poorly fitted or top-dose-only effect, or effect the other way, or another doubt; inactive = no such curve, though single readings can be large or run the other way. Potencies beside an inconclusive call are fits to weak or partial responses and may not hold up.

experiment: Nrf2 qHTS screen for inhibitors: counterscreen for cytotoxicity; settings: A549 ARE-Fluc cells, CellTiter-Fluor viability, 18-24 h; series mostly up to 46 µM
In short: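 A549 ARE-Fluc cells in 5% FBS OPTI-MEM, 5000 cells/well, rested 2 h then exposed to compounds in concentration-response for 18-24 h at 37 °C. Viability by CellTiter-Fluor fluorescence (Ex 405/Em 525) after 30 min; luciferase luminescence (BugLite, 15 min, RT) read afterwards.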
Potency is the fitted concentration of half-maximal effect.

Structure (SMILES) | Potency
C/C(=N\NC(=O)c1ccc(Cl)cc1)c1ccccn1 | inconclusive: 0.231 µM [falling, full curve, poor fit]
COc1ccc(Cn2c(C(C)C)nc3sc4ccccc4c(=O)c3c2=O)cc1 | inconclusive: 25.9 µM [falling, single point]
COc1ccc(CS(=O)(=O)/C(Cl)=C(/Cl)C(=O)Nc2ccc(OC)nc2)cc1 | active: 20.6 µM
O=C(O)[C@@H]1CCCN(S(=O)(=O)c2cccc3cccnc23)C1 | inactive
Cc1cc(C)cc(NC(=O)CSc2oc(-c3ccco3)nc2S(=O)(=O)c2ccc(Cl)cc2)c1 | inconclusive: 29.1 µM [falling, single point]
CCOC(=O)CCCNC(=O)c1cncc(Br)c1 | inconclusive: 32.6 µM [activator, partial curve, poor fit]
O=C(C(c1ccccc1)N1CCOCC1)N1CCOCC1 (stereo not drawn) | inconclusive: 13 µM [activator, partial curve, poor fit]
CCCCNC(=O)C1CCN(c2nc3ccccc3nc2C(F)(F)F)CC1 | inactive
COc1ccccc1N1CCN(C(CNC(=O)C(=O)NCc2ccc(F)cc2)c2cccnc2)CC1 (stereo not drawn) | inconclusive: 20.6 µM [falling, partial curve, poor fit]
Cc1ccc(-c2c(C(=O)N3CCN(c4cc(Cl)ccc4C)CC3)oc(=O)c3ccccc23)cc1 | inactive
Cc1ccc(-n2cc(C(C)(C)C)[nH]c2=S)cc1 | inconclusive: 4.61 µM [falling, partial curve, poor fit]
O=C(N/N=C/c1c[nH]c2ccccc12)C1CC1(c1ccccc1)c1ccccc1 (stereo not drawn) | inconclusive: 13 µM [falling, partial curve, poor fit]
CCC(=O)N1CCN(c2ccc(NC(=S)NC(=O)c3ccc(OC)c([N+](=O)[O-])c3)cc2)CC1 | inactive
CC1(C)CC(c2nc(-c3ccc(Cl)cc3)cs2)CCS1 (stereo not drawn) | inconclusive: 18.4 µM [activator, partial curve, poor fit]
NC(=O)c1ccsc1NC(=O)c1nc(-c2ccccc2)n(-c2ccccc2)n1 | inconclusive: 5.17 µM [falling, single point]
CCOC(=O)c1cc(-c2ccccc2)sc1NC(=S)Nc1cccc(C)n1 | inactive
CC(C)c1ccccc1NC(=O)COc1ccc(C(=O)NCCc2ccccc2)cc1 | inconclusive: 29.1 µM [falling, single point]
CN(C)CC(C)(C)CNC(=S)NCc1ccc2c(c1)OCO2 | inconclusive: 3.66 µM [activator, full curve, poor fit]
O=C(O)CCCN1C(=O)/C(=C\c2ccc(-c3nc4ccccc4s3)o2)SC1=S | inconclusive: 18.4 µM [falling, single point]
COc1ccc(-c2cc(C(=O)NN)n(-c3ccccc3)n2)cc1 | inconclusive: 10.3 µM [activator, partial curve, poor fit]
COc1ccc(C(=O)NCc2ccc3c(c2)CCN3C(=O)c2ccc(C)cc2)cc1 | inactive
Cc1cc(=O)oc2c3c(cc(OCC(=O)N4CCC[C@H]4C(=O)O)c12)OC(C)(C)CC3 | inactive

Structure (SMILES) | Potency
COc1ccc(OC)c(NC(=O)c2cc(C3CC3)nc3c2c(C)nn3-c2ccc(C)cc2)c1 | inactive
COC(=O)c1ccc(-n2c(CCC(=O)O)ccc2-c2ccccc2)cc1 | inconclusive: 0.13 µM [activator, full curve, poor fit]
CC1Cc2ccccc2N1S(=O)(=O)c1cccs1 (stereo not drawn) | inconclusive: 3.66 µM [activator, single point]
Cc1ccc(CNC(=O)C2CCN(Cc3nc(-c4cccc(Br)c4)oc3C)CC2)cc1 | inactive
CC(C)OC(=O)c1ccc(NC(=S)NC(=O)c2cncc(Br)c2)cc1 | inconclusive: 10.3 µM [activator, partial curve, poor fit]
CC(CCc1ccccc1)NC(=O)CSc1n[nH]c(-c2ccc(F)cc2)n1 (stereo not drawn) | inactive
Cc1cc(N2C(=O)C(O)=C(C(=O)c3cc4ccccc4o3)C2c2ccc(Br)cc2)no1 (stereo not drawn) | inconclusive: 25.9 µM [falling, single point]
CC(NC(=S)Nc1cccc(C(F)(F)F)c1)C(C)(C)C (stereo not drawn) | inconclusive: 29.1 µM [falling, single point]
CN(C)CCn1c(=O)n(-c2cccc(Cl)c2)c(=O)c2c3c(sc21)CCCCC3 | inconclusive: 29.1 µM [falling, single point]
Nc1ccc(N2CCCCC2)cc1N1CCCCC1 | inactive
C=CCSc1nnc(NC(=O)c2ccc(Cl)nc2)s1 | inactive
O=C(O)c1cccc(NC2=C(Cl)C(=O)c3ccccc3C2=O)c1 | inconclusive: 16.4 µM [falling, single point]
O=S(=O)(Nc1ccc(Cc2ccncc2)cc1)c1ccc(Cl)c(Cl)c1 | inconclusive: 29.1 µM [falling, single point]
Cc1ccc(C)c(NC(=O)Cn2cc(C(=O)c3cccs3)c3ccccc32)c1 | inactive
Cc1ccnc2c1ccc1c(C)ccnc12 | inconclusive: 7.31 µM [falling, partial curve]
COc1ccc(C(=O)NNc2ncnc3c2cnn3-c2cccc(Cl)c2)cc1OC | inconclusive: 25.9 µM [falling, single point]
NC(=O)c1cc2ccc(O)cc2oc1=Nc1ccccc1 | inconclusive: 9.2 µM [activator, partial curve]
COc1ccc(C(C)=O)cc1CSc1nc(NCCc2ccccc2)c2ccccc2n1 | inconclusive: 20.6 µM [falling, single point]
COc1cccc(OCc2nc3ncc(Br)cc3[nH]2)c1 | inconclusive: 3.66 µM [falling, partial curve, poor fit]
CCC1CCCCN1CCCNC(=O)c1ccc2c(=O)n(Cc3ccc(OC)cc3)c(=O)[nH]c2c1 (stereo not drawn) | inconclusive: 3.26 µM [activator, full curve]
O=C(Cn1nnc2c(cnn2-c2ccccc2)c1=O)NCc1cccs1 | inconclusive: 16.4 µM [falling, partial curve, poor fit]

3 structures out of the list, arranged by number of heavy atoms, low to high:
Structure (SMILES) | Potency
CC1Cc2ccccc2N1S(=O)(=O)c1cccs1 (stereo not drawn) | inconclusive: 3.66 µM [activator, single point]
C=CCSc1nnc(NC(=O)c2ccc(Cl)nc2)s1 | inactive
COc1ccc(C(=O)NNc2ncnc3c2cnn3-c2cccc(Cl)c2)cc1OC | inconclusive: 25.9 µM [falling, single point]
